# Assay results as given in publication PMC4361677.
# The chains behind the UniProt entries cited, without tags or fusion partners. Residues count along the entry.
# HAF-NS2 (HCV NS2 of JFH1ad_HAF-NS2EI3, carrying a HA-Flag epitope sequence) (Hepatitis C virus genotype 2a (JFH1)) (Q99IB8, residues 814-1030): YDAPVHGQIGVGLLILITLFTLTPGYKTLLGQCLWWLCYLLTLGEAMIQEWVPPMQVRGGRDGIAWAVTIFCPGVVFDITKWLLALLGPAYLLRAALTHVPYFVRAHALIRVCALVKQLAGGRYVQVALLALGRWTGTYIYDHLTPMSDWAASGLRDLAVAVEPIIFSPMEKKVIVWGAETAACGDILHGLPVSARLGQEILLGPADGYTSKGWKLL
# NS3 (wild type) of JFH1ad_HAF-NS2EI3 (Q99IB8, residues 1031-1661): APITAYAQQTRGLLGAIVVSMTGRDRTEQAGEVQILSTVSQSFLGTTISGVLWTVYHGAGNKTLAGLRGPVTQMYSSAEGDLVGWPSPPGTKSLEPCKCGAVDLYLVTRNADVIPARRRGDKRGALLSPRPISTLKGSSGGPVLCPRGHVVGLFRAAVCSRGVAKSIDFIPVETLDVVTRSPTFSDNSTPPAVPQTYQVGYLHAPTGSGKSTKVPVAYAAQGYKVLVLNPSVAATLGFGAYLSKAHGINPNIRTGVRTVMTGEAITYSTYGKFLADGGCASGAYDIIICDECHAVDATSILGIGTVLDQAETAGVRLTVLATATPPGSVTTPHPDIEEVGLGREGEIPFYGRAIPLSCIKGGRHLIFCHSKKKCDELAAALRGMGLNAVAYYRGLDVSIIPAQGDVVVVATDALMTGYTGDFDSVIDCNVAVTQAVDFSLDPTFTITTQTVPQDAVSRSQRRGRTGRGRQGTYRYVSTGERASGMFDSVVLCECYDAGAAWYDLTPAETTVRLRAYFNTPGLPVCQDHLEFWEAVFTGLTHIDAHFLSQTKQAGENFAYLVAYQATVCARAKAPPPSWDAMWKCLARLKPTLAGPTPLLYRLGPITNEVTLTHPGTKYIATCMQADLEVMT
# No constants are given. Whether binding was seen depends on the method and setting. Binding seen in cells or lysates may run through a third protein. Some results given as binding are weak or reduced against the parent protein; the word gives no strength.
# Molecular target: HAF-NS2 (HCV NS2 of JFH1ad_HAF-NS2EI3, carrying a HA-Flag epitope sequence) (Hepatitis C virus genotype 2a (JFH1)) (UniProt Q99IB8)
# Assay: co-IP; HA-specific immunoprecipitation of HAF-NS2 from lysates of Huh7.5 cells 72 h after transfection with JFH1ad_HAF-NS2EI3 RNA (wild type or NS3 mutant); co-immunoprecipitated NS3 detected by Western blot; genome without HA-Flag tag and mock cells as negative controls
substance,measurement,value
NS3 (wild type) of JFH1ad_HAF-NS2EI3 (from UniProt Q99IB8 1031-1661),binding,binds
